Values quoted from earlier work, collected in patent US20140093563A1, “FEBUXOSTAT COMPOSITIONS” (RANBAXY LABORATORIES LIMITED, priority 2011, published 2014).
The name of at least one read-out is uncertain.

Q: For `Cc1nc(-c2ccc(OCC(C)C)c(C#N)c2)sc1C(=O)O` [febuxostat, 2-(3-cyano-4-isobutyloxyphenyl)-4-methyl-5-thiazolecarboxylic acid], which “Permeability (BCS)” value is on record?
A: The value was “high permeability”.
